Results published in patent US5948693 (dated 1999).

How the values were obtained:
[1] = general procedure: peptide synthesis; PEG-PS with HMPB linker; MBHA polystyrene named as preferred polymer; DIPCDI/HOAt (solid phase); BOP-Cl, DCC/HOBt (solution); (PrPO2)3/DMAP or PyAOP f
[2] = solution-phase peptide synthesis; PAC-MBHA polystyrene; DIPCDI/HOAt (solid phase); BOP-Cl, DCC/HOBt (solution); (PrPO2)3/DMAP or PyAOP f; conditions: whole synthesis

Substance	step yield ([1]; coupling step) [%]	further results
Fmoc-D-Ala-MeLeu-MeLeu-MeVal-Me(3-OH)Leu-Abu-Sar-MeAla-Val-MeAla-Ala-OBzl	34	
H-Me(3-OH)Leu-Abu-Sar-MeAla-Val-MeAla-Ala-OBzl		step yield ([1]; late stage modification step): 62%
MeLeu^1 -Abu^2 -Sar^3 -MeLeu^4 -Val^5 -MeLeu^6 -Ala7-D-Ala^8 -Meleu^9 -MeLeu^10 -MeVal^11		isolated yield [2]: 10-15%
N,O-Isopropylidene-Me(3-OH)Leu-Abu-Sar-MeAla-Val-MeAla-Ala-OBzl	55	
